PubChem BioAssay AID743121 | NCATS – 2013
Shown is an unselected part of about 26,000 reagents tested. Of all reagents, 167 (0.63%) were called active. 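Calls are per gene from RSA p-values that are not deposited; an individual active-marked siRNA can sensitise only weakly.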 Entries without a mark were called inactive. The numbers tell different reagents against one gene apart. Not all columns of the deposit are shown.

Assay: 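Knock-downs that sensitise breast cancer cells to camptothecin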 (primary screen)
Cells: MDA-MB-231 cells, a human breast cancer line
Knock-down reagent: single siRNA against human genes, 20 nM siRNA (0.8 pmol per well)
Time to read-out: 120 h (drug added 48 h after transfection, read 72 h later)
Conditions: camptothecin 20 nM (about EC30) for 72 h; vehicle 0.1% DMSO in parallel plates
Read-out: 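CellTiter-Glo ATP signal, scaled to control siRNA as percent viability; sensitisation given as log2 of untreated divided by camptothecin-treated viability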
Direction: log2 vehicle/camptothecin viability: higher = stronger sensitisation to camptothecin; viability with camptothecin: higher = more viable cells
Units: viability with camptothecin in % of control
Rule for the call: 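Active genes have an RSA gene-level p-value below 0.001, computed from the ratios of their separate siRNAs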

CCR3 (GeneID 1232) #1: log2 vehicle/camptothecin viability = -0.496; viability with camptothecin = 86.2
CCR3 (GeneID 1232) #2: log2 vehicle/camptothecin viability = -0.0833; viability with camptothecin = 78.9
CCR3 (GeneID 1232) #3: log2 vehicle/camptothecin viability = 0.227; viability with camptothecin = 101
CCR3 (GeneID 1232) #4: log2 vehicle/camptothecin viability = -0.382; viability with camptothecin = 86.1
ADGRL1 (GeneID 22859) #1: log2 vehicle/camptothecin viability = 0.344; viability with camptothecin = 37.9
ADGRL1 (GeneID 22859) #2: log2 vehicle/camptothecin viability = -0.204; viability with camptothecin = 69.8
ADGRL1 (GeneID 22859) #3: log2 vehicle/camptothecin viability = -0.0135; viability with camptothecin = 95.7
ADGRL1 (GeneID 22859) #4: log2 vehicle/camptothecin viability = 0.0266; viability with camptothecin = 59.4
NPC2 (GeneID 10577) #1: log2 vehicle/camptothecin viability = -0.213; viability with camptothecin = 72.9
NPC2 (GeneID 10577) #2: log2 vehicle/camptothecin viability = -0.204; viability with camptothecin = 97.2
NPC2 (GeneID 10577) #3: log2 vehicle/camptothecin viability = -0.136; viability with camptothecin = 105
NPC2 (GeneID 10577) #4: log2 vehicle/camptothecin viability = -0.041; viability with camptothecin = 61.5
WNT5A (GeneID 7474) #1: log2 vehicle/camptothecin viability = 0.359; viability with camptothecin = 69.3
WNT5A (GeneID 7474) #2: log2 vehicle/camptothecin viability = -0.284; viability with camptothecin = 113
WNT5A (GeneID 7474) #3: log2 vehicle/camptothecin viability = -0.391; viability with camptothecin = 88.3
CAV3 (GeneID 859) #1: log2 vehicle/camptothecin viability = -0.206; viability with camptothecin = 62.1
CAV3 (GeneID 859) #2: log2 vehicle/camptothecin viability = -0.295; viability with camptothecin = 96.3
CAV3 (GeneID 859) #3: log2 vehicle/camptothecin viability = 0.281; viability with camptothecin = 54.7
PCDH7 (GeneID 5099) #1: log2 vehicle/camptothecin viability = 0.126; viability with camptothecin = 69.6
PCDH7 (GeneID 5099) #2: log2 vehicle/camptothecin viability = 0.318; viability with camptothecin = 81.7
PCDH7 (GeneID 5099) #3: log2 vehicle/camptothecin viability = -0.142; viability with camptothecin = 70.7
PCDH7 (GeneID 5099) #4: log2 vehicle/camptothecin viability = -0.444; viability with camptothecin = 89.9
C7 (GeneID 730) #1: log2 vehicle/camptothecin viability = -0.304; viability with camptothecin = 54.2
C7 (GeneID 730) #2: log2 vehicle/camptothecin viability = -0.261; viability with camptothecin = 75.8
C7 (GeneID 730) #3: log2 vehicle/camptothecin viability = 0.443; viability with camptothecin = 61.2
C7 (GeneID 730) #4: log2 vehicle/camptothecin viability = 0.132; viability with camptothecin = 39.2
USP10 (GeneID 9100) #1: log2 vehicle/camptothecin viability = -0.438; viability with camptothecin = 103
USP10 (GeneID 9100) #2: log2 vehicle/camptothecin viability = -0.482; viability with camptothecin = 119
USP10 (GeneID 9100) #3: log2 vehicle/camptothecin viability = -0.261; viability with camptothecin = 82.3
PGA5 (GeneID 5222) #1: log2 vehicle/camptothecin viability = -0.594; viability with camptothecin = 48.2
PGA5 (GeneID 5222) #2: log2 vehicle/camptothecin viability = -0.225; viability with camptothecin = 123
PGA5 (GeneID 5222) #3: log2 vehicle/camptothecin viability = -0.18; viability with camptothecin = 17.5
PGA5 (GeneID 5222) #4: log2 vehicle/camptothecin viability = -0.00901; viability with camptothecin = 103
RYR1 (GeneID 6261) #1: log2 vehicle/camptothecin viability = -0.399; viability with camptothecin = 90.1
RYR1 (GeneID 6261) #2: log2 vehicle/camptothecin viability = -0.0993; viability with camptothecin = 88
RYR1 (GeneID 6261) #3: log2 vehicle/camptothecin viability = 0.0585; viability with camptothecin = 80.1
RYR1 (GeneID 6261) #4: log2 vehicle/camptothecin viability = 0.0244; viability with camptothecin = 110
PRPF19 (GeneID 27339) #1: log2 vehicle/camptothecin viability = -0.518; viability with camptothecin = 78.5
PRPF19 (GeneID 27339) #2: log2 vehicle/camptothecin viability = -0.322; viability with camptothecin = 70.2
PRPF19 (GeneID 27339) #3: log2 vehicle/camptothecin viability = -0.487; viability with camptothecin = 64.1
PRPF19 (GeneID 27339) #4: log2 vehicle/camptothecin viability = -0.341; viability with camptothecin = 68.6
MAP4K1 (GeneID 11184) #1: log2 vehicle/camptothecin viability = -0.099; viability with camptothecin = 103
MAP4K1 (GeneID 11184) #2: log2 vehicle/camptothecin viability = -0.445; viability with camptothecin = 73.8
MAP4K1 (GeneID 11184) #3: log2 vehicle/camptothecin viability = -0.0678; viability with camptothecin = 61.8
MAP4K1 (GeneID 11184) #4: log2 vehicle/camptothecin viability = -0.521; viability with camptothecin = 89.8
